Measurements as given in the supplement of paper PMC12889115.
Some of the results follow. Values are raw readings; no control value is given beside them.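 First-pass screen: polymyxin B was added at a level that permeabilizes the Salmonella outer membrane while sparing the inner membrane. DMSO wells, with and without polymyxin B, defined maximum growth. Because plates differed from one another, each plate's data were ranked separately and the compounds with the lowest OD600 were carried forward as hits.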

Test system: Salmonella enterica serovar Typhimurium SL1344
Experiment: bacterial growth OD600 after 18 h with compound and polymyxin B; higher = more bacterial growth (less inhibition)
Conditions: 50 µM, Mueller-Hinton broth

| SMILES | bacterial growth OD600 (polymyxin B 1 µg/mL) | bacterial growth OD600 (polymyxin B 0.75 µg/mL) |
| --- | --- | --- |
| O=C(Nc1ccc(-c2nc3ccccc3o2)cc1)C1CCN(CCO)CC1 | 1.06 | – |
| Cc1ccccc1CCC1CCCN(C(=O)CCN2CCCO2)C1 (configuration not stated) | – | 0.845 |
| CCOC(=O)C1(Cc2ccc(F)cc2F)CCCN(Cc2cnc(SC)nc2)C1 (configuration not stated) | 0.777 | – |
| Cc1cccc(CN2CCCC3(CCN(c4cc(C)nc(N)n4)C3)C2=O)c1 (configuration not stated) | 0.908 | – |
| Cc1cnc(C(=O)N(CC2CCN(Cc3ccccc3C)CC2)CC2CCCO2)cn1 (configuration not stated) | 0.541 | – |
| O=C(NCc1cccc2[nH]ccc12)c1cc(COc2ccccc2)[nH]n1 | 1 | – |
| COC(=O)CC(NC1CCN(c2ccc(NC(=O)c3cnccn3)cc2)CC1)C(=O)OC (configuration not stated) | – | 0.87 |
| O=C(c1ccccn1)N1CCC2(CCCN(Cc3ccc(F)c(F)c3)C2=O)C1 (configuration not stated) | 0.959 | – |
| COc1cccc(CC2=NOC(C(=O)NC3CCc4ccccc43)C2)c1 (configuration not stated) | – | 0.719 |
| COc1cccc(CN2CC(C(=O)N3CCC(Oc4cccnc4)CC3)CCC2=O)c1 (configuration not stated) | 0.814 | – |
| CCCn1cc(CN2C[C@H]3OC(=O)N(CCc4ccc(F)cc4)[C@H]3C2)c(C)n1 | – | 0.814 |
| c1cnc(N2CCC(C3CCN(C4CCOCC4)C3)CC2)nc1 (configuration not stated) | – | 0.778 |
| COc1ccccc1CNC(=O)CCC1(Cc2ccc(OC)c3ccccc23)CCC(=O)N1 (configuration not stated) | – | 0.747 |
| COc1ccc(CN2CCN(C3CCCC3)C(CCO)C2)cc1C (configuration not stated) | 0.794 | – |
| O=C(c1coc(COc2cccc3cccnc23)n1)N1CCCC1 | 0.924 | – |
| COc1ccc(C(=O)N2CCc3c(cnc(C)c3CNC(=O)c3ccccc3SC)C2)cc1F | – | 0.821 |

| SMILES | bacterial growth OD600 (polymyxin B 1 µg/mL) | bacterial growth OD600 (polymyxin B 0.75 µg/mL) |
| --- | --- | --- |
| Cc1ccccc1-c1cnc(-c2cccnc2)nc1C1CCN(C(=O)c2sccc2C)CC1 | – | 0.725 |
| CN(CCO)c1ccc(-c2nc(-c3cccc(C(F)(F)F)c3)no2)cn1 | – | 0.116 |
| Cc1nc(N2CCCC(C(=O)NCC3CCCCC3)C2)nc2cc(S(C)(=O)=O)ccc12 (configuration not stated) | – | 0.934 |
| CN(Cc1ccncc1)CC1CCCN(CCc2ccccc2F)C1 (configuration not stated) | 0.533 | – |
| COc1ccc(CN2Cc3cc(C)ccc3OC(c3ccsc3)C2)c(OC)c1OC (configuration not stated) | – | 0.554 |
| O=C(N1CCCC(Nc2ccccc2)C1)C1(c2ccccc2)CC1 (configuration not stated) | 0.93 | – |
| CCOC(=O)C1(Cc2cccc(OC)c2)CCN(Cc2ccc3c(c2)OCCO3)CC1 | 0.479 | – |
| CN(CCC(O)c1ccccc1)c1nncc(-c2cc3ccccc3o2)n1 (configuration not stated) | 0.441 | – |
| COC(=O)c1cc(CNC(=O)COc2ccccc2)cc(NC(=O)C2(c3ccc(Cl)cc3)CC2)c1 | – | 0.79 |
| Cc1ccsc1C(=O)C1CCCN(Cc2cccn2-c2ccc(Cl)cn2)C1 (configuration not stated) | 0.833 | – |
| CC(=O)c1ccc(OCC(=O)NC(C)c2cnn(-c3ccccc3C)c2C)cc1 (configuration not stated) | 0.816 | – |
| CCCNC(=O)NC1CC(=O)N(Cc2ccccc2C(F)(F)F)C1 (configuration not stated) | 0.818 | – |
| COCCn1cnc2cc(NC(=O)C3CCCCC3)cc(C(=O)N3CCCC3c3nccs3)c21 (configuration not stated) | – | 0.812 |
| COc1cccc(CN2CCC(n3nccc3NC(=O)c3ccccc3)CC2)c1 | 1.08 | – |
| CC(C)(CO)NC(=O)c1csc2nc(-c3ccc(C(F)(F)F)cc3)cn12 | 0.838 | – |
| CN(Cc1cccnc1)C(=O)C1CCC(=O)N(CCc2ccc(Cl)cc2)C1 (configuration not stated) | 1.1 | – |

Single records, from the list above. Order of values: bacterial growth OD600 (polymyxin B 1 µg/mL)	bacterial growth OD600 (polymyxin B 0.75 µg/mL)
COc1ccccc1CNC(=O)CCC1(Cc2ccc(OC)c3ccccc23)CCC(=O)N1 (configuration not stated) is listed as –	0.747
CCCn1cc(CN2C[C@H]3OC(=O)N(CCc4ccc(F)cc4)[C@H]3C2)c(C)n1 is listed as –	0.814
